PMC7862700
The list shows a part of the results, in another mix than the full data. For part of these data: At the low end of the ranking the order means little. This is one part of the list. For part of these data: The exact form of the protein is not confirmed.

The chains behind the UniProt entries cited, without tags or fusion partners. Where a name states a change or a piece, a line headed by the entry shows the natural chain unless it says otherwise.
UniProt P32519: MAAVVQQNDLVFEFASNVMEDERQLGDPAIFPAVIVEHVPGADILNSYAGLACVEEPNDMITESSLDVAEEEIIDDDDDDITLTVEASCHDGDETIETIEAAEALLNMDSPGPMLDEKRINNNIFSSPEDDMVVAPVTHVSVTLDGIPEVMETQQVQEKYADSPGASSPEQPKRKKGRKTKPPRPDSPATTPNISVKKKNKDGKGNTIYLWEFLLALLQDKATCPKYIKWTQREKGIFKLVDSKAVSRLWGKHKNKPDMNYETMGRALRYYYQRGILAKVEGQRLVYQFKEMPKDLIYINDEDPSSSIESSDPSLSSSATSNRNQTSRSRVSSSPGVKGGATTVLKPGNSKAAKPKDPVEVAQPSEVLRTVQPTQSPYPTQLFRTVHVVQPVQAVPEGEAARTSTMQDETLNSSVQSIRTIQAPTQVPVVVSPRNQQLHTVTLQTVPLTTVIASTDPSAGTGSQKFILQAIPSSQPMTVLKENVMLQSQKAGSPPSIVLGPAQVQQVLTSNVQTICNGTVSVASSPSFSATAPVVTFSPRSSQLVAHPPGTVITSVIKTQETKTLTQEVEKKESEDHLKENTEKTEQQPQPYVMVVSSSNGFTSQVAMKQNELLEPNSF
UniProt P50549: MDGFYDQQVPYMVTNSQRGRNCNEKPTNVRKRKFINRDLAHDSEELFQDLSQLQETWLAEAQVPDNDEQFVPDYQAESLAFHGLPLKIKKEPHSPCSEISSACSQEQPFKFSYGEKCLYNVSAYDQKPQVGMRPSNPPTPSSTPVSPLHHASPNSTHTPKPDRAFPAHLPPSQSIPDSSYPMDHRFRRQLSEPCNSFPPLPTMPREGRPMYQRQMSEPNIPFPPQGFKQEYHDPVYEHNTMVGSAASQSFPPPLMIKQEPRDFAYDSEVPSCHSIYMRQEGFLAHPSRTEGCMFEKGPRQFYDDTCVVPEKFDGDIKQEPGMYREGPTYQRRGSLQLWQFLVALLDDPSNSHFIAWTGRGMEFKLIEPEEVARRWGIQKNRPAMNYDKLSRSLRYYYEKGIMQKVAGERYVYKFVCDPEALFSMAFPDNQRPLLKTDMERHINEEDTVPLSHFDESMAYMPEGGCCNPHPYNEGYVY

Assays:
Test in all cases: DAPPL (digital affinity profiling via proximity ligation, sequencing)
Details in all cases: 10 mM Tris-HCl pH 7.5, 50 mM NaCl, 1 mM DTT, 4% glycerol, room temperature, 30 min; GST-TFs on glutathione beads, 16-mer random dsDNA library, 0.1% …; high values mean tight binding; double strand, one strand shown; scale: fold enrichment (6-mer frequency, TF over GST control)
ERG = molecular target: T1, ERG (UniProt P11308)
T1 sequence: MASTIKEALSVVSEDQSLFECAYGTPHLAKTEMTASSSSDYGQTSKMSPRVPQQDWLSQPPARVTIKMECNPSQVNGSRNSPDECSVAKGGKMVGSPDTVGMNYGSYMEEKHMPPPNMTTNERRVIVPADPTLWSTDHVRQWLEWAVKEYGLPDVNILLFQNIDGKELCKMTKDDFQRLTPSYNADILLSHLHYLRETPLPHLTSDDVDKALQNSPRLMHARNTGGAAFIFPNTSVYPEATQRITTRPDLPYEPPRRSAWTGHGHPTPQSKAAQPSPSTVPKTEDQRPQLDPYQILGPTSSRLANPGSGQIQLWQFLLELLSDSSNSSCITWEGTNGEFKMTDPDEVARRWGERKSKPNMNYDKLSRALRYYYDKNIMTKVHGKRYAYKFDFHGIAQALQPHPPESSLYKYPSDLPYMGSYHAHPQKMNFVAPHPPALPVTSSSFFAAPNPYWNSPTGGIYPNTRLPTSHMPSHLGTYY

ELF1 = ELF1 (UniProt P32519)
ELK4 = molecular target: T2, ELK4 (UniProt P28324-2)
T2 sequence: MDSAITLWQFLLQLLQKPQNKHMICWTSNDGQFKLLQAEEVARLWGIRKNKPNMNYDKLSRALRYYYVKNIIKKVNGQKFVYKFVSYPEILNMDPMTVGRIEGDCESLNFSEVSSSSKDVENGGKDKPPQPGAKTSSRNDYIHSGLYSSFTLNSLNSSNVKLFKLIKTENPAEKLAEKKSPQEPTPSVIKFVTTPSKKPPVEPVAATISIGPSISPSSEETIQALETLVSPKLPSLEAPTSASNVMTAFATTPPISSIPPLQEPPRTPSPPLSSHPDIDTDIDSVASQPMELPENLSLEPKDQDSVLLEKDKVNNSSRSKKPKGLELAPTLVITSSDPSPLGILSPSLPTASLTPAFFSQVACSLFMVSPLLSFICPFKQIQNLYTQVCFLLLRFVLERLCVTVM

ETV4 = molecular target: T3, ETV4 (UniProt P43268)
T3 sequence: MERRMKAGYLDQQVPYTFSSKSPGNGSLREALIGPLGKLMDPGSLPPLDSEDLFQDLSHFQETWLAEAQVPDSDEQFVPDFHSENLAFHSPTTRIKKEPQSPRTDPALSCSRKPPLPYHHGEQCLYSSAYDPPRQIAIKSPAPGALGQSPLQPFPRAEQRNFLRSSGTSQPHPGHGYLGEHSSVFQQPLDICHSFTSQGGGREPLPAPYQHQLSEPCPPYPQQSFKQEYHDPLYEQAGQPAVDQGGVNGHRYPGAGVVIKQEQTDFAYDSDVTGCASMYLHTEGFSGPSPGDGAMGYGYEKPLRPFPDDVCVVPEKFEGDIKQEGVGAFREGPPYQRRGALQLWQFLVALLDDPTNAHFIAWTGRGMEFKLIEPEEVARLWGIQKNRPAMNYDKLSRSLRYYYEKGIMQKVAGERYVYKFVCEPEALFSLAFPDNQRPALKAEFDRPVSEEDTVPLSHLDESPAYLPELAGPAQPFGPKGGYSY

ETV1 = ETV1 (UniProt P50549)
ERF = molecular target: T4, ERF (UniProt P50548)
T4 sequence: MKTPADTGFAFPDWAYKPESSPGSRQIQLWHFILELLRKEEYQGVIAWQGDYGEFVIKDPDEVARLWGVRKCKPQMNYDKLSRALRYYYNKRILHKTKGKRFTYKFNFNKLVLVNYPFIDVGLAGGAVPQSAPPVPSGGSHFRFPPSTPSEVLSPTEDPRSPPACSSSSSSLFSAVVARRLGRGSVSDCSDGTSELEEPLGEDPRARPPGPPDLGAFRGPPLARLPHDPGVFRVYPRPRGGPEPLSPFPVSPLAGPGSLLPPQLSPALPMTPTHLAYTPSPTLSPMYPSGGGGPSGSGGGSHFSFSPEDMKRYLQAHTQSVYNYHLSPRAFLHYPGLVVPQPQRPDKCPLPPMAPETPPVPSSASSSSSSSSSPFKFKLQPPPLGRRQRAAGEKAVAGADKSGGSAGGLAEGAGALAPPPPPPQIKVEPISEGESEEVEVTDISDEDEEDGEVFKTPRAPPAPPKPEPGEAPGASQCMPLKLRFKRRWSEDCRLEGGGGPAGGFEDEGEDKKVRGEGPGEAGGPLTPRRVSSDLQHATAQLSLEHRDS

Sequence	binding signal (ERG)	binding signal (ELF1)	binding signal (ELK4)	binding signal (ETV4)	binding signal (ETV1)	binding signal (ERF)
TTAGGA	0.888	0.918	0.945	0.913	0.911	0.996
AAACAG	0.995	0.967	1.04	0.922	0.983	0.953
GGTCAC	1.01	0.975	0.908	0.987	1.02	0.961
GTGATG	0.943	0.993	1.18	0.966	1.03	0.889
GGTCCA	0.875	0.885	0.957	0.921	0.821	0.889
TAAGAG	0.941	0.912	0.871	0.869	0.9	0.951
ATAACG	0.984	0.971	0.904	1.02	0.988	0.89
AGACTC	0.943	0.938	0.79	0.964	0.92	0.981
TGACGG	0.884	0.937	0.916	0.908	0.937	0.985
AGTCTT	0.918	0.926	0.884	0.931	0.872	1.01
CTAGTG	0.833	0.907	0.807	0.859	0.819	0.934
AGCAGA	0.881	0.923	0.882	0.891	0.887	0.872
GTGTAC	0.924	0.902	0.885	1.02	0.964	0.993
AGTGTA	0.984	0.984	0.893	1.1	0.936	0.984
AGCATG	0.94	0.897	0.936	0.994	0.951	0.911
CGAGAT	0.855	0.915	0.862	0.891	0.942	0.91
TACGAG	0.893	0.933	0.9	0.963	0.852	0.832
GCCGTC	0.98	1.02	1.1	0.921	0.913	0.872
TTAGAG	0.83	0.914	0.854	0.822	0.84	0.934
CGAGTA	0.807	0.876	0.881	0.823	0.879	0.915
AGAACT	0.902	0.963	0.873	0.954	0.929	0.8
GCGAAG	0.926	0.955	0.989	0.926	0.994	0.799
TAAGTC	0.862	0.897	0.817	0.844	0.897	0.901
GACTTA	0.93	0.955	1	0.938	0.891	0.994
TTCGGG	0.93	0.936	0.797	0.946	0.893	0.884

Sequence	binding signal (ERG)	binding signal (ELF1)	binding signal (ELK4)	binding signal (ETV4)	binding signal (ETV1)	binding signal (ERF)
AGAGAA	0.849	0.841	0.706	0.798	0.825	0.827
CAGAAG	0.741	0.737	0.863	0.78	0.727	0.762
AAGGCC	0.914	0.947	0.857	0.886	0.885	0.887
AAAGTC	0.93	0.93	1.08	0.953	0.992	0.956
GACGTT	0.975	0.964	0.982	0.933	0.869	0.857
ACAAGA	0.96	0.977	0.896	0.908	0.973	0.983
AGCATA	0.97	0.954	0.956	0.914	0.857	0.949
ATTCGG	0.898	0.961	0.92	0.847	0.905	0.962
AACGGT	0.974	0.923	0.993	0.907	0.99	0.974
ATGGGA	0.875	0.981	0.889	0.994	0.99	0.897
AGCCCA	0.93	0.974	0.944	1	0.946	0.999
TGGATT	1.05	0.965	1.11	1.01	0.917	0.983
TCCGAG	0.928	0.944	0.864	0.913	0.809	0.877
GAAGAT	0.928	0.865	0.951	0.936	0.937	0.94
GAATGG	0.966	0.986	0.991	1	0.918	0.909
GTTCAG	0.869	0.873	0.849	0.879	0.838	0.827
GTAAGC	0.933	0.932	0.983	0.902	0.925	0.874
GCCAGA	0.695	0.645	0.746	0.652	0.713	0.61
CATCGT	0.884	0.901	0.971	0.938	0.851	0.972
CGTTTG	0.887	0.992	1.07	1.11	1.06	0.951
TTGGGA	0.923	0.911	0.896	0.854	0.93	0.965
GACCGC	0.956	0.959	0.971	0.979	0.875	0.989
AGATCA	0.787	0.889	0.803	0.811	0.933	0.907
AGAAGG	0.723	0.678	0.713	0.687	0.687	0.722
ACAAGT	0.877	0.958	0.892	0.869	0.905	0.938

Sequence	binding signal (ERG)	binding signal (ELF1)	binding signal (ELK4)	binding signal (ETV4)	binding signal (ETV1)	binding signal (ERF)
AGGAAT	0.791	0.745	0.728	0.786	0.745	0.833
GCATTA	0.809	0.856	0.901	0.82	0.853	0.832
AGCGAA	0.938	0.918	0.945	0.901	0.927	0.939
TAGGTA	0.977	0.986	0.992	0.932	0.926	1.08
GGAATG	0.885	0.854	0.874	0.893	0.793	0.874
AGATGG	0.913	0.891	0.957	0.873	0.796	0.996
GATAGT	0.824	0.833	0.808	0.855	0.844	0.862
TAGAGA	0.788	0.847	0.807	0.826	0.814	0.794
CGGCAC	0.999	0.902	0.929	0.994	0.981	0.957
CTGTGG	0.968	0.894	0.987	0.941	0.844	0.95
AGGCCC	0.94	0.983	0.937	0.983	0.913	0.964
GGCATA	0.908	0.832	0.923	0.905	0.887	0.933
TGAAGG	0.958	0.944	0.958	0.882	0.929	0.917
GATCTG	0.923	0.899	0.912	0.934	0.964	0.995
AGGTTC	0.852	0.87	0.843	0.854	0.844	0.825
CATAGA	0.875	0.933	0.933	0.869	0.943	0.926
TGGGCG	0.916	0.911	0.999	0.948	0.87	0.896
CGAGGT	0.982	0.944	1.06	0.98	0.965	0.983
GATAAG	0.859	0.914	0.861	0.932	0.959	0.916
GAAAGT	0.812	0.841	0.901	0.852	0.809	0.88
GGTTAA	0.82	0.891	0.928	0.865	0.814	0.814
GACCGA	0.839	0.898	0.844	0.874	0.853	0.814
GACTTG	0.791	0.917	0.987	0.906	0.889	0.766
